# PubChem BioAssay AID1224830 – NIAID, 2016
# Assay: 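Genes whose knock-down alters the TNF-alpha reporter response to LPS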 (primary screen)
# System: human THP-1 monocytic leukaemia cells, TNF dual-luciferase reporter clone, PMA-differentiated to macrophage-like cells
# Reagents: siRNA pool against human genes, 50 nM
# Time to read-out: LPS for 4 h, given about 3 days after siRNA transfection
# Challenge: bacterial LPS (TLR4 ligand), 10 ng/ml
# Read-out: 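TNF firefly reporter luminescence divided by renilla, normalised to the plate median, then turned into a robust z-score for each replicate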
# Reading the numbers: TNF reporter robust z-score: higher = stronger TNF reporter response to LPS
# Active means: 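Each well counts as active if its z-score is over 2.8 or under -1.5; controls are left without a call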
# The whole screen tested about 18,000 reagents; this is an unselected part. About 2,900 of all reagents (16%) count as active. 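Calls are made per well; low scores hint the gene aids the LPS response, high scores that it dampens it.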 Entries without a mark were called inactive. Repeated entries: four replicate wells of each siRNA pool.
target gene,PubChem SID,TNF reporter robust z-score
TMBIM4,SID315456822,-1.38
TMBIM4,SID315456822,-0.49
TMBIM4,SID315456822,-0.05
TMBIM4,SID315456822,0.65
SLC35D3,SID315464066,0.6
SLC35D3,SID315464066,1.46
SLC35D3,SID315464066,0.26
GJA3,SID315448899,0.04
GJA3,SID315448899,1.75
GJA3,SID315448899,1.21
GJA3,SID315448899,4.67 (active)
ISL1,SID315449540,6.73 (active)
ISL1,SID315449540,0.35
ISL1,SID315449540,-1.06
ISL1,SID315449540,-0.33
ATP2B4,SID315447462,-1.95 (active)
ATP2B4,SID315447462,-0.1
ATP2B4,SID315447462,-0.25
ATP2B4,SID315447462,0.26
ZFPM2,SID315455226,-1.28
ZFPM2,SID315455226,-0.77
ZFPM2,SID315455226,-0.98
ZFPM2,SID315455226,0.31
ESM1,SID315454587,-0.52
ESM1,SID315454587,-0.39
ESM1,SID315454587,-0.76
ESM1,SID315454587,0.13
LY96,SID315455388,-1.73 (active)
LY96,SID315455388,-1.77 (active)
LY96,SID315455388,-1.86 (active)
TBC1D16,SID315461650,-1.42
TBC1D16,SID315461650,-0.46
TBC1D16,SID315461650,-0.81
TBC1D16,SID315461650,0.37
LRTOMT,SID315463237,0.33
LRTOMT,SID315463237,1
LRTOMT,SID315463237,0.56
LRTOMT,SID315463237,1.17
OR8J3,SID315459851,-1.63 (active)
OR8J3,SID315459851,-1.88 (active)
OR8J3,SID315459851,-1.83 (active)
OR8J3,SID315459851,-1.79 (active)

Quoted from the entries so far for reference:
target gene,PubChem SID,TNF reporter robust z-score
GJA3,SID315448899,4.67 (active)
ISL1,SID315449540,6.73 (active)
ISL1,SID315449540,0.35
ISL1,SID315449540,-1.06
ISL1,SID315449540,-0.33

Additional results follow:
target gene,PubChem SID,TNF reporter robust z-score
ERCC6,SID315448557,0.91
ERCC6,SID315448557,-0.04
ERCC6,SID315448557,-0.59
ERCC6,SID315448557,0.22
CENPV,SID315463060,1.96
CENPV,SID315463060,1.95
CENPV,SID315463060,1.38
CENPV,SID315463060,2.15
SNRNP25,SID315459330,-1.18
SNRNP25,SID315459330,0.05
SNRNP25,SID315459330,-0.78
SNRNP25,SID315459330,0.26
ARVCF,SID315447422,0.61
ARVCF,SID315447422,-1.65 (active)
ARVCF,SID315447422,-0.41
ARVCF,SID315447422,0.44
PHYHIP,SID315453574,0.37
PHYHIP,SID315453574,0.57
PHYHIP,SID315453574,0.2
PHYHIP,SID315453574,-0.07
MTFR1L,SID315458043,2.33
MTFR1L,SID315458043,0.62
MTFR1L,SID315458043,0.97
MTFR1L,SID315458043,3.04 (active)
LZTS1,SID315454666,0.22
LZTS1,SID315454666,2.04
LZTS1,SID315454666,1.29
LZTS1,SID315454666,1.41
HTRA2,SID315456055,2.71
HTRA2,SID315456055,6.07 (active)
HTRA2,SID315456055,1.82
HTRA2,SID315456055,3.58 (active)
CALHM6,SID315464933,0.53
CALHM6,SID315464933,1.25
CALHM6,SID315464933,0.18
CALHM6,SID315464933,1.97
FXYD6,SID315456929,0.41
FXYD6,SID315456929,-0.85
FXYD6,SID315456929,-0.15
FXYD6,SID315456929,0.59
MTBP,SID315455908,3.36 (active)
MTBP,SID315455908,4.77 (active)
MTBP,SID315455908,0.94
MTBP,SID315455908,2.32
YIPF3,SID315455506,1.35
YIPF3,SID315455506,0.22
YIPF3,SID315455506,-1.16
YIPF3,SID315455506,-0.74
YIPF3,SID315455506,0.34
YIPF3,SID315455506,0.59
YIPF3,SID315455506,-0.49
YIPF3,SID315455506,2.39
STX16,SID315452738,-0.1
STX16,SID315452738,-0.77
STX16,SID315452738,-0.03
STX16,SID315452738,-0.53
SLC25A42,SID315463784,-0.17
SLC25A42,SID315463784,-0.95
SLC25A42,SID315463784,0.01
SLC25A42,SID315463784,-0.58
PGAM5,SID315462941,-0.82
PGAM5,SID315462941,-0.97
PGAM5,SID315462941,-0.53
PGAM5,SID315462941,-1.19
VAMP2,SID315451718,0.13
VAMP2,SID315451718,0.59
VAMP2,SID315451718,0.71
VAMP2,SID315451718,0.51
